PubChem BioAssay AID504808, Drosophila RNAi Screening Center, 2011

Screen: 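Genes whose loss lifts activity of an E2F-responsive reporter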 (primary screen)
Cell system: Drosophila S2 cells
Knock-down reagent: long dsRNA against Drosophila genes
Detection: 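Firefly luciferase driven by E2F sites, normalised to Renilla luciferase on the same minimal promoter, measured by plate reader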
Direction: E2F firefly: higher = more E2F reporter activity; Renilla normaliser: higher = more normaliser reporter signal
Call rule: 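Called active if the normalised E2F reporter went up by over 50%; the cutoff is arbitrary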
The screen tested about 21,000 reagents; below is an unselected part of those that have a named target and a result. In the full data, 18 (0.084%) are marked active. 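Raw counts without plate normalisation, one of two replicates; the ratio scores behind the calls were not deposited.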 A number with no mark means an inactive call. Reagents against one gene are numbered here. A plus sign joins genes that one reagent is predicted to hit. The record does not give: the amount of reagent, the time to read-out.

no.	Gene	reagent no.	E2F firefly, rep 1	Renilla normaliser, rep 1
1	Cpr76Bb	1	1.50e5	8440
2	Optix	1	1.49e5	5634
3	Optix	2	3076	200
4	CG13840	1	1.48e5	5365
5	Ir25a	1	1.39e5	4952
6	CG6923	1	77904	3556
7	Mul1	1	95603	4070
8	OstDelta	1	63506	3754
9	Nup62	1	76111	3186
10	Uch-L5R	1	1.11e5	7455
11	CG7049	1	65697	3395
12	Lcp65Ag3	1	1.01e5	3934
13	DIP-epsilon	1	1.39e5	5865
14	DIP-epsilon	2	1.61e5	5165
15	Vha36-2	1	1.08e5	4629
16	swm	1	87228	3424
17	CG32944	1	1.39e5	6698
18	CG32944	2	1.30e5	5964
19	yip3	1	84803	4373
20	AANATL3	1	1.03e5	4287
21	ArgRS-m	1	1.34e5	6054
22	Cpr92A	1	1.32e5	7316
23	CG15226 (retired record)	1	1.26e5	4242
24	CG15226 (retired record)	2	96276	4016
25	S6k	1	93540	3746
26	CG34032 (retired record)	1	1.24e5	4737
27	CG14219	1	1.39e5	6795
28	eIF5B	1	99852	4169
29	eIF5B	2	1.14e5	4155
30	CG13833	1	1.17e5	6811
31	bsk	1	77376	3315
32	Pi3K68D	1	78836	4080
33	CG16894	1	1.54e5	5522
34	CG8460	1	85090	3348
35	Lamtor5	1	1.34e5	6596
36	PMCA	1	87563	2296
37	PMCA	2	86537	2854
38	PMCA	3	1748	960
39	Or49a	1	97254	4344
40	CG1620	1	82578	3230
41	eIF2gamma	1	61525	2915
42	eIF2gamma	2	75371	4262
43	Tm2	1	91895	5311
44	CG10907	1	1.37e5	8380
45	Cyp4d14	1	1.11e5	5895
46	CG11902	1	1.05e5	5961
47	CG14915	1	1.27e5	5860
48	PK1-R	1	1.13e5	6267
49	l(2)gl	1	58875	2981
50	p130CAS + Dic61B	1	61955	3259
51	Orc4	1	88175	2990
52	CG12831	1	1.39e5	4364
53	Ir51a	1	1.03e5	4199
54	Pgm2b	1	2944	208
55	CG14778	1	1.32e5	5859
56	Cyp6d5	1	75484	3426
57	fit	1	1.26e5	6811
58	SelR	1	1.32e5	6538
59	Mccc2	1	89361	3973
60	CG5846	1	67490	3272
61	Sgs3	1	1.34e5	6102
62	RanBPM	1	3006	263
63	Atg7	1	1.64e5	7286
64	Atg7	2	1.53e5	4691
65	dao	1	99942	4131
66	Myo10A	1	43630	3057
67	Myo10A	2	1.30e5	5286
68	unpg	1	1.56e5	4711
69	CG14589	1	1.14e5	4740
70	Pura	1	1.30e5	4470
71	Pura	2	1.04e5	4357
72	Pura	3	1.06e5	4173
73	Pura	4	90376	4059
74	Pura	5	1.05e5	4103
75	CG4210	1	98905	5365
76	Or74a	1	1.63e5	8765
77	CG43902	1	92347	5227
78	CG44836	1	1.65e5	7353
79	Su(H)	1	1.13e5	4715
80	mRpS33	1	92203	4350
81	Arp53D	1	1.48e5	4743
82	Bre1	1	77125	3245
83	Lip2	1	1.60e5	5747
84	Lip2	2	1.62e5	5367
